In US4303640A, “Oil-in-water organophosphorus insecticidal emulsion” (priority 1979, dated 1981):
At least one compound was matched to its structure with a doubt left.

Test: size of emulsified particles of the active ingredient (microscope)
Type: physicochemical
Details: oil-in-water emulsion, as prepared
Procedure: A brief description of the method of producing the oil-in-water insecticidal emulsion of this invention will be given below. First, an insecticidally active liquid ingredient of the organophosphorus compound is added to a 2 to 20 wt% aqueous solution of polyvinyl alcohol or gum arabic, and a conventonal stirrer such as a T.K. Homomixer (a homogenizer manufactured by Tokushu Kika Kogyo Co., Ltd.) or a Shinagawa All-Purpose Mixer (a mixer manufactured by San-Ei-Seisakusho, Ltd.) is used to disperse the particles of the active ingredient (A.I.), generally at ambient temperature or, if necessary, at an elevated temperature (about 40° to 80° C.). The size of the emulsified particles of the active ingredient can be varied wihtin the range of from about 1 to 200μ depending upon the stirring force or the content of polyvinyl alcohol or gum arabic. A microscope is used to check the size of the emulsified particles of the active ingredient. Finally, for the purpose of preventing settling of the emulsified particles and improving the dispersion stability, an aqueous solution of a thickener is added to the emulsion in a suitable amount. The resulting oil-in-water insecticidal emulsion remains stable for an extended period. […]

| SMILES | Particle Size of emulsified active ingredient [μ] |
| --- | --- |
| CCOC(=O)CC(SP(=S)(OC)OC)C(=O)OCC (stereo not drawn) [Compound (2), O,O-dimethyl S-[1,2-di-(ethoxycarbonyl)ethyl]-phosphorodithioate] | 1 to 40 |
| CCOC(=O)C(SP(=S)(OC)OC)c1ccccc1 (stereo not drawn) [Compound (4), O,O-dimethyl S-[α-(ethoxycarbonyl)benzyl]-phosphorodithioate] | 1 to 50 |
